Measured values reported in patent publication US11591288B2, “Compositions and methods for treating atherosclerotic cardiovascular disease” (GAVISH-GALILEE BIO APPLICATIONS LTD., priority 2017, dated 2023).

Experiments:
rePON1 = assay: rePON1-lyso-DGTS interaction, Trp fluorescence quenching; assay type: binding
Method: To 200 μl rePON1 (50 μg/ml=1.16 μM) solution in black 96-well plate wells was added lyso-DGTS at various concentration (0, 1, 5, 10, 25, 50, 75, and 100 μg/ml). The solutions were incubated for 2 h at 25° C. or 37° C. Fluorescence measurements were performed with an Infinite M200 PRO fluorescence spectrophotometer (Tecan) with emission spectra recorded from 320 to 450 nm at an excitation wavelength of 290 nm.
The effect of lyso-DGTS on rePON1 can result from a specific interaction between the lipid and the enzyme which was studied using Trp fluorescence quenching method. […] (FIG. 3A) and 37° C. (FIG. 3B) in the 300-450 nm range with an excitation wavelength of 290 nm. Lyso-DGTS quenched the fluorescence of rePON1 in a dose dependent manner at both temperatures.
Quenching pathways can be described by the Stern-Volmer equation (eq. 1):
[formula] where F0 and F are the fluorescence intensities in the absence and presence of quencher (lyso-DGTS), respectively, Ksv is the Stern-Volmer quenching constant, and [Q] is the quencher concentration (M).
The binding constant and binding sites were calculated using (eq. 2):
[formula] where Ka is the binding constant, reflecting the degree of interaction between rePON1 and lyso-DGTS, and n is the number of binding sites specifying the number of lyso-DGTS molecules bound to a rePON1. […] (2.377×10^3 M^−1; FIG. 4C). The values obtained for n were not affected by the temperature and were equal to ˜1 (Table 4). The thermodynamic parameters: enthalpy (ΔH), entropy (ΔS), and free energy (ΔG) were calculated to characterize the type of rePON1-lyso-DGTS interaction.

HDL = assay: HDL-lyso-DGTS interaction, Trp fluorescence quenching; assay type: binding, human
Method: FIGS. 10A-10B show tryptophan fluorescence spectra of HDL (0.03 mg/ml) incubated with/without lyso-DGTS at various concentrations (1, 5, 10, 25, 50, 75, and 100 μg/ml) in black 96-well plates for 4 h at 37° C. (10A) or 25° C. (10B). The fluorescence was measured at excitation/emission 290/320-340 nm. The ability of lyso-DGTS to elevate HDL activity correlates with its binding affinity to HDL. Each experiment repeated separately at least three times.
HDL and LDL were isolated from human plasma samples by discontinuous density gradient ultracentrifugation and dialyzed against saline containing sodium ethylenediaminetetraacetic acid (EDTA; 1 mmol/L) to protect the lipoproteins against oxidation. Before generating the experiments, LDL and HDL were dialyzed twice, for 1 h each time, and once more overnight against PBS at 4° C. to remove EDTA.
In order to test whether the protective effect of lyso-DGTS on HDL occurs via specific interaction between lyso-DGTS and the lipoprotein, the HDL-lyso-DGTS interaction was investigated by the Trp-fluorescence-quenching method. […] (FIG. 10A) and 25° C. (FIG. 10B) in the 300-450 nm range with an excitation wavelength of 290 nm. Lyso-DGTS quenched HDL fluorescence in a dose-dependent manner at both temperatures.
Quenching pathways can be described by the Stem-Volmer equation (eq. 1 above). The Stern-Volmer curve was linear at the tested concentration of lyso-DGTS at both temperatures (with R>0.99 and p<0.0001). The Ksv values were (5.59±0.42)×10^3 M^−1 at 37° C. (FIG. 11A) and (4.83±0.59)×10^3 M^−1 at 25° C.
The binding constant and binding sites were calculated as shown for rePON1, using eq. 2 above. […] (FIG. 11D). The values obtained for n were not affected by temperature and were equal to 1 (Table 5). The thermodynamic parameters: enthalpy (ΔH), entropy (ΔS), and free energy (ΔG) were calculated to characterize the HDL-lyso-DGTS interaction type.

CC/C=C\C/C=C\C/C=C\C/C=C\C/C=C\CCCC(=O)OCC(O)COCCC(C(=O)[O-])[N+](C)(C)C (stereo not drawn) [lyso-DGTS, lyso-diacylglyceryltrimethylhornmoserine]
number of binding sites (n), lyso-DGTS-rePON1 (rePON1; 298 K): 0.98 ± 0.05
ΔG, lyso-DGTS-rePON1 interaction (rePON1; 298 K): -5.4675 kcal/mol
number of binding sites (n), lyso-DGTS-rePON1 (rePON1; 310 K): 0.84 ± 0.05
ΔG, lyso-DGTS-rePON1 interaction (rePON1; 310 K): -4.773 kcal/mol
ΔH, lyso-DGTS-rePON1 interaction (rePON1; from 298 and 310 K): -22.704 kcal/mol
ΔS, lyso-DGTS-rePON1 interaction (rePON1; from 298 and 310 K): −242.16 J/mol K
number of binding sites (n), lyso-DGTS-HDL (HDL; 298 K): 0.96 ± 0.05
ΔG, lyso-DGTS-HDL interaction (HDL; 298 K): -1.16 kcal/mol
number of binding sites (n), lyso-DGTS-HDL (HDL; 310 K): 1.19 ± 0.05
ΔG, lyso-DGTS-HDL interaction (HDL; 310 K): -1.464 kcal/mol
ΔH, lyso-DGTS-HDL interaction (HDL; from 298 and 310 K): 6.36 kcal/mol
ΔS, lyso-DGTS-HDL interaction (HDL; from 298 and 310 K): 105.59 J/mol K
